Test results reported in paper PMC11100153.
These are yes or no findings as the source states them, for the method shown. In cells and extracts the contact can be indirect. Some results given as binding are weak or reduced against the parent protein; the word gives no strength.

Sequences of proteins named here, by UniProt entry; tags and fusion partners are left off.
UniProt Q96PU5: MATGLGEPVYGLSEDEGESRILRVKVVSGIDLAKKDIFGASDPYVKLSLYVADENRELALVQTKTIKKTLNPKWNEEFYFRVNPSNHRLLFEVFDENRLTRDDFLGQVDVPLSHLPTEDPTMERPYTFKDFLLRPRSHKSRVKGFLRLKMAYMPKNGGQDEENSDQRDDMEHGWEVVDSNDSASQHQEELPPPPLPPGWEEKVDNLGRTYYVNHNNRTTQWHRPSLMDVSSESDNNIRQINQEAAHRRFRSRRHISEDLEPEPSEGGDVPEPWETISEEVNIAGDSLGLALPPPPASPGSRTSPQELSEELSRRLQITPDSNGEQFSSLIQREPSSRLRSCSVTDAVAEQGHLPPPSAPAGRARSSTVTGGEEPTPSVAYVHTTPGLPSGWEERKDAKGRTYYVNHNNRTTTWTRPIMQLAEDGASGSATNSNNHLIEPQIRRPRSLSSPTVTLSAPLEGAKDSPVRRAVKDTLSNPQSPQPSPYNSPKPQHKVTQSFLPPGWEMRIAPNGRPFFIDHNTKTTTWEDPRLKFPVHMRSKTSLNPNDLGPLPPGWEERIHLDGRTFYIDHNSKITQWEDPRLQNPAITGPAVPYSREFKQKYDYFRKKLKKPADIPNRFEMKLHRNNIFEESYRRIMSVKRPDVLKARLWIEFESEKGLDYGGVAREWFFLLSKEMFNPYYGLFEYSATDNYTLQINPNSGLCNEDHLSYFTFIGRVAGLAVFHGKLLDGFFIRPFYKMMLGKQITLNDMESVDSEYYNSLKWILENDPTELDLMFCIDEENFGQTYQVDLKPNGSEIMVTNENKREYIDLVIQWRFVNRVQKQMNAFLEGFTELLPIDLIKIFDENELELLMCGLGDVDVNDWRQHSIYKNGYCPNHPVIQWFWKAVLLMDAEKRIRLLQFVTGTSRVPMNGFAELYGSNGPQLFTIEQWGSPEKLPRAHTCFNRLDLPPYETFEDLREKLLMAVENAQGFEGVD
UniProt Q96RR4: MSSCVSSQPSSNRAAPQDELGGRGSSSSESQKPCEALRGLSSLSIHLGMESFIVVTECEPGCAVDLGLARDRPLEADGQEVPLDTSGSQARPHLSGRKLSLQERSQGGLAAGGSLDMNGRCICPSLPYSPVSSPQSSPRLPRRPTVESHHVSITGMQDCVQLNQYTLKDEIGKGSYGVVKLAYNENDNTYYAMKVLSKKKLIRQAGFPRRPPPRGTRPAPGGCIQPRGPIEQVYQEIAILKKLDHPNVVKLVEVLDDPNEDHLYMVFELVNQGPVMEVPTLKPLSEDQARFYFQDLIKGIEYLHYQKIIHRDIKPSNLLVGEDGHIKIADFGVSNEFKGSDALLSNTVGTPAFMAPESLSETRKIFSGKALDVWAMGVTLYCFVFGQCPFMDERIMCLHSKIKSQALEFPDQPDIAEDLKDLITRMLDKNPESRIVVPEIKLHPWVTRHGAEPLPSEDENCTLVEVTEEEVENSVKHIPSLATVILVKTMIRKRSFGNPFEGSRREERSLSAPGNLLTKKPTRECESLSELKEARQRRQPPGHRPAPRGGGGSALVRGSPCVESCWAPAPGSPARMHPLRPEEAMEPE

Target: NEDD4L (human (endogenous in HK-2)) (UniProt Q96PU5)
Assay: co-IP; NEDD4L antibodies used to isolate complexes from HK-2 cell lysate (IP lysis buffer: 50 mM Tris pH 7.4, 1 mM EDTA, 150 mM NaCl, 0.5% NP-40, protease inhibitors; 4 °C), Protein A/G PLUS-Agarose, SDS-PAGE and immunoblot with CaMKKβ antibodies

With “CaMKKβ (calmodulin-dependent protein kinase β) (from UniProt Q96RR4 1-588)” the binding was “binds”.
